# Source: PubChem BioAssay AID1688 (National Center for Advancing Translational Sciences (NCATS), 2009)
# Screen size: about 220,000 compounds; about 2,400 (1.1%) were called active. Inconclusive means that the source gave no clear call. Such entries were picked first, then a sample of the others. The call rests on the fitted dose curve; in most records, active means well fitted inhibition curve with a large enough effect; inconclusive means small, poorly fitted or top-dose-only effect, or effect the other way; inactive means no such curve, though single readings can be large or run the other way. Potencies of inconclusive entries are doubtful fits and often do not repeat.
# Assay: qHTS Multiplex Assay to Identify Dual Action Probes in a Cell Model of Huntington: Aggregate Formation (GFP); further: nearly all actives have a fitted effect of over 60% in size
# Conditions: PC12 HttQ103-GFP aggregates, Acumen cytometry, 40 h; activity change, negative = inhibition: at 46.1 µM (top of the series) unless noted
# How it was run: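 Ecdysone-promoter PC12 model expressing HTT exon 1 Q103 fused to GFP, induced by tebufenozide at 100 nM final. Compounds titrated; aggregates sized 1–25 µm scored on a 488 nm laser cytometer.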
# On the % scale 0 is the no-effect control and ±100 the full control effect; potency means the concentration at half of the fitted maximal effect.
SMILES,Potency,"activity change, negative = inhibition"
CC(C)OC(=O)c1c(NC(=O)CCC(=O)O)sc2c1CCCCC2,inactive,–
c1ccc(-c2oc3ncnc(NCCN4CCOCC4)c3c2-c2ccccc2)cc1,"inconclusive: 35.5 µM [inhibitor, single point]",–
CCOc1cc(C2C(C#N)=C(N)OC3CCCC(=O)C32)ccc1OCCN1CCOCC1 (stereo not given),"inconclusive: 15.8 µM [activator, single point]",–
Cc1cc(C(=O)CN2C(=O)NC3(CCCCC3)C2=O)c(C)n1Cc1ccc2c(c1)OCO2,"inconclusive: 22.4 µM [inhibitor, single point]",–
Cc1ccc(OCC(=O)NCC2CCCO2)c(C)c1 (stereo not given),–,inactive: -5.43% [at 9.22 µM]
C/C(=N\Nc1cccc2cccnc12)c1ccccn1,"inconclusive: 35.5 µM [inhibitor, single point]",–
O=C(CCNS(=O)(=O)c1cccc2nonc12)NC1CCCCC1,"inconclusive: 35.5 µM [activator, partial curve]",–
O=C(Nc1cccc(F)c1)c1cccc(S(=O)(=O)N2CCOCC2)c1,"inconclusive: 14.1 µM [inhibitor, single point]",–
FC(F)(F)C(F)(F)C(F)(F)C(F)(F)C(F)(F)C(F)(F)F,inactive,–
CC(C)(C)NC(=S)NC(=O)C12CC3CCC(CC(C3)C1)C2,"inconclusive: 17.8 µM [inhibitor, partial curve]",–
Cc1ccc(OCC(=O)NC(=S)Nc2ccc3c4c(cccc24)CC3)cc1,"inconclusive: 2.82 µM [activator, full curve]",–
O=C(Nc1ccccc1)c1ccccc1OCc1cccc([N+](=O)[O-])c1,inactive,–
O=C1CC(C(=O)Nc2cccc(F)c2)n2ncnc2N1 (stereo not given),inactive,–
Clc1ccc(CON/C=N/c2ncnc3sccc23)cc1,"inconclusive: 11.2 µM [inhibitor, partial curve]",–
CCO/C=C1/C(=O)N(CC)c2ccccc21,"inconclusive: 22.4 µM [inhibitor, single point]",–
O=C(Nc1nnc(-c2ccc3c(c2)CCCC3)o1)c1ccc(Cl)cc1Cl,"inconclusive: 25.1 µM [inhibitor, single point]",–
CCOc1ccc2nc(SCC(=O)c3ccc(C)s3)sc2c1,"inconclusive: 35.5 µM [inhibitor, single point]",–
CCCCCCn1c2c(c(=N)c3c1CCC3)CCC2,active: 1.78 µM,–
COc1ccc(-c2cccc(C3CC=CC4C3C(=O)N(Cc3ccccc3)C4c3ccc(OC)c(Cl)c3)c2)cc1 (stereo not given),"inconclusive: 2 µM [inhibitor, partial curve]",–
CC(C)(C)Cc1nc(-c2ccc(Cl)cc2)no1,inactive,–
Cc1ccc2c(c1)[nH]c1c(N3CCN(Cc4ccc5c(c4)OCO5)CC3)ncnc12,"inconclusive: 3.55 µM [inhibitor, partial curve]",–
COc1ccc(OC)c(/C=C/C(=O)N2C(=O)c3cccc(N)c3C2=O)c1,"inconclusive: 11.2 µM [activator, single point]",–
CC(C)NC(=O)CCNC(=O)c1ccc(F)cc1,inactive,–
CN(C)S(=O)(=O)Oc1cccc(C(=O)Nc2ccc(Cl)c(Cl)c2)c1,active: 12.6 µM,–

SMILES,Potency,"activity change, negative = inhibition"
O=C(c1cnn2c1NC(c1ccco1)CC2C(F)(F)F)N1CCN(c2cccc(Cl)c2)CC1 (stereo not given),active: 22.4 µM,–
O=C1C(=Cc2cccs2)C(=O)c2ccccc21,"inconclusive: 1.26 µM [inhibitor, single point]",–
Cc1ccc(SCCNC(=S)Nc2ccccc2)cc1,"inconclusive: 35.5 µM [inhibitor, single point]",–
C=CC[C@@H]1Cc2c(Br)ccc(Br)c2[C@@H](CC=C)N1,"inconclusive: 35.5 µM [inhibitor, single point]",–
COc1ccc(C2C(C(=O)c3ccccc3)N3c4ccccc4C=CC3C2[N+](=O)[O-])cc1 (stereo not given),active: 17.8 µM,–
NC(N)=NC(N)=Nc1ccc(SC(F)(F)F)cc1,"inconclusive: 4.47 µM [inhibitor, full curve]",–
c1ccc2c(c1)[nH]c1c(N3CCOCC3)ncnc12,inactive,–
O=C(Nc1ccc(Cl)cc1)C1C2CCC3C(CCC21)C3(Cl)Cl (stereo not given),"inconclusive: 35.5 µM [inhibitor, single point]",–
CCc1nnc(NC(=O)c2ccc(S(=O)(=O)N3CCCc4ccccc43)cc2)o1,active: 8.91 µM,–
N#CSCC(=O)c1cccc2ccccc12,"inconclusive: 12.6 µM [activator, single point]",–
CC(C)Cc1nc(Cl)c(C#N)c2c1CCCC2,"inconclusive: 11.2 µM [inhibitor, partial curve]",–
Cn1c(=O)c2c(nc(Oc3ccccc3)n2C)n(C)c1=O,"inconclusive: 12.6 µM [inhibitor, partial curve, poor fit]",–
O=C(NC1CCN(C(=S)NCCc2ccccc2)CC1)C1CC1,"inconclusive: 5.62 µM [activator, single point]",–
Cc1c(CCOC(=O)c2ccc(N3CCOCC3)c([N+](=O)[O-])c2)sc[n+]1CC#N,"inconclusive: 0.631 µM [activator, single point]",–
COC(=O)c1c[nH]n2c(=O)c(Cc3ccc(F)cc3Cl)c(C)nc12,active: 17.8 µM,–
CC(C)(O)C#Cc1ccc(C(=O)NCc2ccccc2F)cc1,"inconclusive: 10 µM [inhibitor, single point]",–
CCc1cc2c(SCC(=O)O)ncnc2s1,"inconclusive: 25.1 µM [inhibitor, single point]",–
Cc1ccccc1/C=C/c1nc2ccccc2c(=O)n1CCc1ccccc1,"inconclusive: 22.4 µM [inhibitor, single point]",–
CC(C)c1nc2oc3c(NCC4CCCO4)ncnc3c2c2c1COC(C)(C)C2 (stereo not given),"inconclusive: 3.16 µM [activator, partial curve]",–
Cn1cnnc1SCC(=O)c1cc2ccccc2o1,inactive,–
Cc1cccc(CSc2nc3c(c(=O)[nH]2)CCC3)c1,inactive,–
O=C(Nc1ccc(S(=O)(=O)Nc2nccs2)cc1)c1ccc(N2C(=O)c3ccccc3C2=O)cc1,"inconclusive: 4.47 µM [activator, partial curve]",–
COC(=O)c1ccc(COc2ccccc2/C=C(\C#N)C(=O)Nc2c(C)cccc2C)cc1,"inconclusive: 35.5 µM [activator, single point]",–
Cc1nc2sc(C(N)=O)c(N)c2c(C)c1CC(=O)c1ccccc1,active: 3.55 µM,–

SMILES,Potency,"activity change, negative = inhibition"
N#CC1=C(N)SC(N)=C(C#N)C1c1cccc(Oc2ccccc2)c1,"inconclusive: 22.4 µM [inhibitor, single point]",–
COc1cccc(-c2noc(CCC(=O)Nc3cccnc3)n2)c1,"inconclusive: 0.562 µM [activator, full curve]",–
O=C(COC(=O)c1cc([N+](=O)[O-])ccc1NCCO)c1ccccc1,inactive,–
COc1cc(/C=C/C(=O)c2ccc(C)c([N+](=O)[O-])c2)cc(OC)c1O,"inconclusive: 35.5 µM [activator, single point]",–
CCC/C(O)=C1\C(=O)CC(C)(C)CC1=Nc1ccc(OC)cc1OC,inactive,–
Cc1[nH]c2ccccc2c1SCC(=O)NNC(=O)Nc1ccc(OC(F)(F)F)cc1,–,inactive: -8.73% [at 9.22 µM]
COc1ccc(CNc2nc(-c3cccnc3)nn2C(C)=O)cc1,"inconclusive: 1.12 µM [inhibitor, single point]",–
COc1ccc(OC(C)C(=O)NCc2cccnc2)cc1 (stereo not given),"inconclusive: 4.47 µM [inhibitor, single point]",–
O=C1C(NS(=O)(=O)c2cccs2)=C(N2CCN(c3cccc(C(F)(F)F)c3)CC2)C(=O)c2ccccc21,"inconclusive: 35.5 µM [inhibitor, single point]",–
COc1cc(C(c2nnnn2C(C)(C)C)N2CCN(c3nc4ccccc4s3)CC2)ccc1O (stereo not given),"inconclusive: 35.5 µM [inhibitor, single point]",–
COc1ccc(NS(=O)(=O)c2ccc(N/N=C/c3ccc(N4CCOCC4)cc3)c([N+](=O)[O-])c2)cc1,active: 2 µM,–
Cc1nc2ncnn2c(C)c1CCC(=O)N1CCOCC1,"inconclusive: 1.26 µM [inhibitor, single point]",–
Cc1cc(C)c2nc(NC(=O)c3ccc4c(=O)n5c(nc4c3)CCCCC5)sc2c1,inactive,–
Cc1ccccc1OCC(O)Cn1c(=N)n(Cc2ccccc2)c2ccccc21 (stereo not given),–,inactive: -9.17% [at 9.22 µM]
CCCCC1=CC2=C(c3ccco3)C(=O)C(C)(OC(=O)c3ccc(OC)cc3)C(=O)C2=CN1CCc1ccccn1 (stereo not given),–,inactive: -10.8% [at 9.22 µM]
COC(=O)c1ccccc1NC(=S)NC(=O)COc1ccccc1,inactive,–
COCC(C)n1c(-c2ccc3c(c2)NC(=O)CO3)csc1=Nc1ccc(OC(F)F)cc1 (stereo not given),"inconclusive: 12.6 µM [inhibitor, partial curve]",–
O=C(CCc1ccc(O)cc1)N/N=C/c1coc2ccccc2c1=O,–,inactive: 6.35% [at 9.22 µM]
CCCC1=[N+](CC(=O)c2ccccc2)CCn2c(C)ccc21,"inconclusive: 17.8 µM [inhibitor, single point]",–
Cc1cccnc1NC(=O)c1ccc([N+](=O)[O-])o1,"inconclusive: 3.16 µM [inhibitor, single point]",–
CC(C)CN(C(=O)COC(=O)Cc1c[nH]c2ccccc12)C1CCS(=O)(=O)C1 (stereo not given),"inconclusive: 5.62 µM [inhibitor, single point]",–
CC1CCc2sc(C(=O)OC(C)C(=O)Nc3ncc(Cl)cc3Cl)cc2C1 (stereo not given),"inconclusive: 5.62 µM [inhibitor, single point]",–

# Exported with tabs: 4 of the compounds above.
SMILES	Potency	activity change, negative = inhibition
COc1ccc(NS(=O)(=O)c2ccc(N/N=C/c3ccc(N4CCOCC4)cc3)c([N+](=O)[O-])c2)cc1	active: 2 µM	–
Cc1ccccc1OCC(O)Cn1c(=N)n(Cc2ccccc2)c2ccccc21 (stereo not given)	–	inactive: -9.17% [at 9.22 µM]
CCCCC1=CC2=C(c3ccco3)C(=O)C(C)(OC(=O)c3ccc(OC)cc3)C(=O)C2=CN1CCc1ccccn1 (stereo not given)	–	inactive: -10.8% [at 9.22 µM]
CCCC1=[N+](CC(=O)c2ccccc2)CCn2c(C)ccc21	inconclusive: 17.8 µM [inhibitor, single point]	–
